In publication PMC4053412 one finds binding data, which are given here for 1 substance.

The chains behind the UniProt entries cited, without tags or fusion partners.
UniProt Q16665: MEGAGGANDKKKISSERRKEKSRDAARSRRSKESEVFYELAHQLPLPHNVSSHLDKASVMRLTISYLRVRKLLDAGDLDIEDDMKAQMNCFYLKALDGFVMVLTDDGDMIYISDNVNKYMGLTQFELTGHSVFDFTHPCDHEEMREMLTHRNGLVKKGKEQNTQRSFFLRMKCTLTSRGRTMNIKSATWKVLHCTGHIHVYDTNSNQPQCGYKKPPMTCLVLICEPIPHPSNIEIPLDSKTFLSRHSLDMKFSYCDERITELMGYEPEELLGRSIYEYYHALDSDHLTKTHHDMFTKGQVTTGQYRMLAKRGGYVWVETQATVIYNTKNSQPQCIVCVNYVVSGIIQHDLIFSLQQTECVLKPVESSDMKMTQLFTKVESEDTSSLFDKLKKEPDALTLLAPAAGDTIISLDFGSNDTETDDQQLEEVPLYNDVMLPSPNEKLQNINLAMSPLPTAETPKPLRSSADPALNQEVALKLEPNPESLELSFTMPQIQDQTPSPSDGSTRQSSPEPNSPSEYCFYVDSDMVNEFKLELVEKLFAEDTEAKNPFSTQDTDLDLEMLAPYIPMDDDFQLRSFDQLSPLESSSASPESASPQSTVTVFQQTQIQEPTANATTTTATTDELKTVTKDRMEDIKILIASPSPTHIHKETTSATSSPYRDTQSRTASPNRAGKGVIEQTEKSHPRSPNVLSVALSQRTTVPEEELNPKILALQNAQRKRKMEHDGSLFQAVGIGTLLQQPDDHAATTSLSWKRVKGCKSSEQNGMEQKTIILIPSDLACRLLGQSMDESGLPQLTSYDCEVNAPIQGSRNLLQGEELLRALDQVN
UniProt Q9C0J9: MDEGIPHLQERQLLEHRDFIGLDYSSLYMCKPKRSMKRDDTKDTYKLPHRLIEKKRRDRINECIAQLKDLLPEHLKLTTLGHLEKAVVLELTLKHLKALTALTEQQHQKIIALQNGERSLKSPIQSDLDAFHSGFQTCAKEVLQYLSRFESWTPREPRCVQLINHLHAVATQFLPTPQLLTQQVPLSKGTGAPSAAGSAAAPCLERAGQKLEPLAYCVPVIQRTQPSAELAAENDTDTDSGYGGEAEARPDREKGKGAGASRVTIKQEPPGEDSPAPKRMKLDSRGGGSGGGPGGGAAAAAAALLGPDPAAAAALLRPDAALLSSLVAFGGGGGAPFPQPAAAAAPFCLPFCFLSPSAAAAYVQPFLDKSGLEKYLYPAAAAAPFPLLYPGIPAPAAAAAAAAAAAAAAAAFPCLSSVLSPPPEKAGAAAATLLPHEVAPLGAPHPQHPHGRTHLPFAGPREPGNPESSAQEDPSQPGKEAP

Results are given in words; binding and its absence hold for the method and conditions named. In cells and extracts the contact can be indirect. Some results given as binding are weak or reduced against the parent protein; the word gives no strength.

For the test, the target named is hypoxia-inducible factor-1α (human (endogenous in Ishikawa)) (UniProt Q16665). Description: co-IP; endogenous proteins; Ishikawa cells under hypoxia for 24 h, RIPA lysate precleared with mouse IgG and protein A+G-agarose; precipitated with mouse anti-human HIF-1α (10 µg/ml) overnight, control mouse IgG; western blotting. A general note: In western blotting, separated proteins are transferred to a membrane and probed.

As to SHARP1 (from UniProt Q9C0J9 1-482), the binding entry is “binds”.
